The results are deposited in PubChem (AID504749; NCATS, 2011).

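A panel of P. falciparum strains inside erythrocytes is exposed to compounds for three days, then a DNA-binding dye reports the amount of parasite DNA.
Each compound was titrated across a series from about 0.000037 to 29 µM.
The number is the fitted AC50, the concentration giving a half-maximal change in signal; a lower value means higher potency, whether the curve shows a decrease or an increase.
Calls follow the curve class and fit quality: every row here is inconclusive, covering signal-raising curves and weak, poorly fitted, partial or highest-dose-only inhibition curves.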

Values are in µM.
All entries here are filed as inconclusive.
Only part of the assay is shown, chiefly results filed as inconclusive.
A potency from a partial, single-point or poor curve is only a rough figure.
Some entries filed as inconclusive have a full curve.
The first word of each remark tells which way the curve ran; it can be opposite to the aim of the assay.

| SMILES | condition | potency (µM) | remark |
|---|---|---|---|
| `CN(C)CC[C@@H](c1ccc(Br)cc1)c1ccccn1` | AA1029 | 5.012 | inhibitor, partial curve |
| `CN(C)CC[C@@H](c1ccc(Br)cc1)c1ccccn1` | N140 | 1.778 | inhibitor, partial curve, poor fit |
| `CN(C)CC[C@@H](c1ccc(Br)cc1)c1ccccn1` | AS120 | 11.22 | inhibitor, partial curve |
| `CN(C)CC[C@@H](c1ccc(Br)cc1)c1ccccn1` | CP238 | 11.22 | inhibitor, partial curve |
| `CN(C)CC[C@@H](c1ccc(Br)cc1)c1ccccn1` | CP329 | 2.133 | inhibitor, partial curve, poor fit |
| `CN(C)CC[C@@H](c1ccc(Br)cc1)c1ccccn1` | ICS | 3.981 | inhibitor, partial curve |
| `CN(C)CC[C@@H](c1ccc(Br)cc1)c1ccccn1` | CP269 | 7.569 | inhibitor, partial curve |
| `CN(C)CC[C@@H](c1ccc(Br)cc1)c1ccccn1` | CP297 | 1.694 | inhibitor, full curve, poor fit |
| `CN(C)CC[C@@H](c1ccc(Br)cc1)c1ccccn1` | PC49 | 12.59 | inhibitor, single point |
| `CN(C)CC[C@@H](c1ccc(Br)cc1)c1ccccn1` | CP256 | 2.818 | inhibitor, partial curve |
| `CN(C)CC[C@@H](c1ccc(Br)cc1)c1ccccn1` | PC26 | 5.358 | inhibitor, partial curve |
| `CN(C)CC[C@@H](c1ccc(Br)cc1)c1ccccn1` | CP291 | 3.793 | inhibitor, partial curve |
| `CN(C)CC[C@@H](c1ccc(Br)cc1)c1ccccn1` | P93_24 | 4.467 | inhibitor, partial curve, poor fit |
| `CN(C)CC[C@@H](c1ccc(Br)cc1)c1ccccn1` | CP201 | 15.1 | inhibitor, single point |
| `CN(C)CC[C@@H](c1ccc(Br)cc1)c1ccccn1` | CP247 | 12.59 | inhibitor, single point |
| `CN(C)CC[C@@H](c1ccc(Br)cc1)c1ccccn1` | JCK | 17.78 | inhibitor, single point |
| `CN(C)CC[C@@H](c1ccc(Br)cc1)c1ccccn1` | CP203 | 7.569 | inhibitor, partial curve |
| `CN(C)CC[C@@H](c1ccc(Br)cc1)c1ccccn1` | TAB165 | 7.943 | inhibitor, partial curve |
| `CN(C)CC[C@@H](c1ccc(Br)cc1)c1ccccn1` | CP268 | 3.793 | inhibitor, partial curve |
| `CN(C)CC[C@@H](c1ccc(Br)cc1)c1ccccn1` | GB4 | 1.694 | inhibitor, full curve |
| `CN(C)CC[C@@H](c1ccc(Br)cc1)c1ccccn1` | CP191 | 8.912 | inhibitor, partial curve |
| `CCCCN(CCCC)CC(O)c1cc(Cl)cc2c1-c1ccc(Cl)cc1/C2=C/c1ccc(Cl)cc1` (stereo not drawn) | PC26 | 0.0107 | inhibitor, full curve, poor fit |
| `CCCCN(CCCC)CC(O)c1cc(Cl)cc2c1-c1ccc(Cl)cc1/C2=C/c1ccc(Cl)cc1` (stereo not drawn) | GB4 | 0.0151 | inhibitor, full curve, poor fit |
| `CC(C)C(=O)Nc1ccc([N+](=O)[O-])c(C(F)(F)F)c1` | 7G8 | 8.912 | inhibitor, single point |
| `CC(C)C(=O)Nc1ccc([N+](=O)[O-])c(C(F)(F)F)c1` | CP247 | 3.162 | inhibitor, single point |
| `O=C(O)CCc1nc2ccccc2[nH]1` | CP262 | 0.4256 | activator |
| `O=C(O)CCc1nc2ccccc2[nH]1` | FAB9 | 5623 | inhibitor, partial curve, poor fit |
| `O=C(O)CCc1nc2ccccc2[nH]1` | CP286 | 0.0001 | inhibitor, full curve, poor fit |
| `O=C(O)CCc1nc2ccccc2[nH]1` | DIV14 | 0.0043 | activator |
| `O=C(O)CCc1nc2ccccc2[nH]1` | CP268 | 4.776 | activator |
| `O=C(O)CCc1nc2ccccc2[nH]1` | P94_40 | 0.0224 | inhibitor, full curve, poor fit |
| `O=C(O)CCc1nc2ccccc2[nH]1` | TAB113 | 7.08 | inhibitor, partial curve, poor fit |
| `O=C(O)CCc1nc2ccccc2[nH]1` | DIV17 | 0.019 | activator |
| `O=C(O)CCc1nc2ccccc2[nH]1` | PC26 | 0.001 | activator |
| `O=C(O)CCc1nc2ccccc2[nH]1` | CP266 | 0.3793 | activator |
| `O=C(O)CCc1nc2ccccc2[nH]1` | JCK | 0.0158 | inhibitor, full curve, poor fit |
| `O=C(O)CCc1nc2ccccc2[nH]1` | CP315 | 0.0019 | activator |
| `O=C(O)CCc1nc2ccccc2[nH]1` | ECU | 44.67 | inhibitor, partial curve, poor fit |
| `O=C(O)CCc1nc2ccccc2[nH]1` | DFO2036 | 10 | inhibitor, partial curve, poor fit |
| `O=C(O)CCc1nc2ccccc2[nH]1` | CP297 | 0.012 | activator |
| `O=C(O)CCc1nc2ccccc2[nH]1` | CP329 | 0.4256 | activator |
| `O=C(O)CCc1nc2ccccc2[nH]1` | CP335 | 0.4775 | activator |
| `O=C(O)CCc1nc2ccccc2[nH]1` | DIV30 | 0.0601 | activator |
| `O=C(O)CCc1nc2ccccc2[nH]1` | N140 | 0.0282 | inhibitor, full curve, poor fit |
| `O=C(O)CCc1nc2ccccc2[nH]1` | CP269 | 0.0675 | activator |
| `O=C(O)CCc1nc2ccccc2[nH]1` | PAD | 35.48 | inhibitor, partial curve, poor fit |
| `O=C(O)CCc1nc2ccccc2[nH]1` | GB4 | 0.0213 | activator |